One molecule from CN113501879A can be followed below.

Protein sequences, listed by entry. Tags and fused reporters are not part of them.
UniProt Q9NZQ7: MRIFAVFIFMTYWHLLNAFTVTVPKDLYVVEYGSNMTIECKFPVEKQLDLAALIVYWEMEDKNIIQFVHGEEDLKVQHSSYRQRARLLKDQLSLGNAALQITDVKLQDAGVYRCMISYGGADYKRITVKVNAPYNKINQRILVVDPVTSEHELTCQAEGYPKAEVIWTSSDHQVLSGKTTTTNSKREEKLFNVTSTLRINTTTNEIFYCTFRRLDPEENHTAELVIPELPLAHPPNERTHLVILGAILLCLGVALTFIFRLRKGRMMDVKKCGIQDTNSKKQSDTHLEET

No constants are given. Whether binding was seen depends on the method and setting. Some binding calls cover weakened binding; strength is not graded here.

The target in the test is PD-L1-his(ACRO biosystem) (human) (UniProt Q9NZQ7). Put plainly: One of the 39 clones positive in the ELISA on coated PD-L1-his (OD450 > 0.4); blocking ELISA with PD-L1-his in solution.

B1: 克隆2G3 (scFv, V domains shown)
VH: QIQLQQSGAELMKPGASVKISCKASGYTFTDYNIHWVKQSHGKSLEWIGRINPYNGDTFYNQKFKGKATLTVDKSSSTAHMELLSLTSEDSAVYYCGRMGYDAWFAYWGQGTLVTVSA
VL: DIQMTQSHKFMSTSVGDRVSITCKASQDVGTAVAWYQQKPGQSPKLLIYWASTRHTGVPDRFTGSGSGTDFTLTISNVQSEDLADYFCQQYSSYPLTFGGGTKLEIK
In the case of B1, the binding entry is recorded as “binds”.
